From PubChem BioAssay AID588590 (National Center for Advancing Translational Sciences (NCATS), 2011)
The whole screen tested about 390,000 compounds, of which about 4,000 (1%) were called active. The shares of active, inactive and inconclusive entries below differ from those in the screen. Calls follow the shape of the dose curve; as a rule, active = well fitted inhibition curve with a large enough effect; inconclusive = small, poorly fitted or top-dose-only effect, or another doubt; inactive = no such curve, though single readings can be large or run the other way. A potency beside an inconclusive call is a rough fit, not a confirmed value.

Amino acid sequences for entries named in this document (tags omitted). A change or cut given only in a name is not applied to a line headed by its entry.
UniProt Q9UNA4: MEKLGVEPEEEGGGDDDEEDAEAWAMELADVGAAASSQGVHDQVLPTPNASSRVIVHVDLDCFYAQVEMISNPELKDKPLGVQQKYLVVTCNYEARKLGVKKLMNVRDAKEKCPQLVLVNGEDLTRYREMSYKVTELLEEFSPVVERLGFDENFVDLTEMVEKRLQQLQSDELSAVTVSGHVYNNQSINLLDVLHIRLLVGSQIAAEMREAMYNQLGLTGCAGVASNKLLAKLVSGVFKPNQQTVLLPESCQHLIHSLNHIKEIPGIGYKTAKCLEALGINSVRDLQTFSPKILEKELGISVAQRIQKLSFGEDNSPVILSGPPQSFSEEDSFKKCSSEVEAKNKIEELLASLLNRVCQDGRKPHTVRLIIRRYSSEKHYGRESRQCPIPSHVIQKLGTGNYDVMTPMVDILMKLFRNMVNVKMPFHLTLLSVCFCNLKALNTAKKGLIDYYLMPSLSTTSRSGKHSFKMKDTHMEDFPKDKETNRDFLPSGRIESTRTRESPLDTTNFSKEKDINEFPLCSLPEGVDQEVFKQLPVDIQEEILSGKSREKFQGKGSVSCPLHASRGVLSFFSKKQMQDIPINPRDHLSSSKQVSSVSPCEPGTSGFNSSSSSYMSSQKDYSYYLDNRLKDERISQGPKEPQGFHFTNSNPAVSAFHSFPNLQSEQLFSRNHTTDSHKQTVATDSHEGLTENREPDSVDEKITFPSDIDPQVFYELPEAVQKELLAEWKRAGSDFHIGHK

Molecular target: DNA polymerase iota (Homo sapiens) (UniProt Q9UNA4)
Test: qHTS for Inhibitors of Polymerase Iota
Settings: Pol iota fluorescent replication assay, 10 min; series mostly up to 115 µM; activity, negative = inhibition: at the top concentration
Outline: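 Fluorescent replication assay read twice, at 0 min and 10 min after adding 50 nM (final) substrate. Enzyme (10 nM) and compounds were first incubated 15 min at room temperature; enzyme-free buffer wells were negative controls.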
Potency is read from the fitted curve at half-maximal effect.

Potency, active:
O=C(COCc1cc(-c2ccc3c(c2)OCO3)on1)N1CCN(c2ccc(F)cc2)CC1 79.4 µM, CC(C)Cn1c(SCc2nnc(-c3cccs3)o2)nc(O)cc1=O 25.1 µM, O=C(Nc1cccc(NC(=O)c2ccc(Br)o2)n1)c1ccc(Br)o1 14.1 µM, Cc1c(Cl)cccc1N=Cc1ccc([N+](=O)[O-])s1 35.5 µM

Potency, inconclusive:
CSc1ccccc1NC(=O)CN(C)C(=O)c1ccc(-n2cccn2)cc1 100 µM [inhibitor, partial curve, poor fit], CCc1c(-c2ccccc2)nc2nc(C)c(C)nn12 25.1 µM [inhibitor, partial curve, poor fit], O=C(/C=C/c1ccco1)NC1=NCCS1 39.8 µM [inhibitor, partial curve, poor fit], Cc1cnc(NC(=O)c2ccc(-c3nc4ccccc4s3)o2)s1 22.4 µM [inhibitor, single point], Cc1c(O)cc2c(c1O)C(=O)CC(c1ccc(O)cc1)O2 (stereo not drawn) 10 µM [inhibitor, partial curve, poor fit], Cc1ccc(Cl)cc1N1CCN(C(=O)c2cc(S(=O)(=O)N3CCCCC3)cn2C)CC1 89.1 µM [inhibitor, single point], CS(=O)(=O)N1CCN(c2ccccc2NC(=O)c2ccc([N+](=O)[O-])o2)CC1 0.891 µM [inhibitor, full curve, poor fit], N#Cc1c2c(c(NCc3ccco3)n3c1nc1ccccc13)CCC2 10 µM [inhibitor, full curve, poor fit], CCc1ccc(NC(=O)N(CCCN2CCOCC2)Cc2cccs2)cc1 8.91 µM [inhibitor, single point], COc1cc(/C=C2/C(=O)ON=C2c2ccccc2)ccc1O 22.4 µM [inhibitor, single point], C=CCOc1cc(OC)c(OC)c(OC)c1 89.1 µM [inhibitor, partial curve, poor fit], O=C(Cn1nnc(-c2ccccc2)n1)OC1CCOC1=O (stereo not drawn) 100 µM [inhibitor, single point], Cc1ccccc1OCC(=O)Nc1cc(C)c(O)c(-c2nc3ccccc3o2)c1 79.4 µM [inhibitor, single point], O=[N+]([O-])c1ccc(-c2c[nH]c(=S)[nH]2)cc1 35.5 µM [inhibitor, partial curve], NC(=O)CC(NC(=O)Cc1ccc(Br)cc1)c1ccc(NC2CCC2)c([N+](=O)[O-])c1 (stereo not drawn) 25.1 µM [inhibitor, full curve, poor fit], CCCc1[nH]nc2c1C(c1cn[nH]c1-c1ccc(F)cc1)C(C#N)=C(N)O2 (stereo not drawn) 35.5 µM [inhibitor, single point], CCOc1ccccc1NC(=O)c1ccc(C(=O)Nc2ccccc2OCC)cc1 100 µM [inhibitor, single point], Cc1[nH]n(C(N)=S)c(=O)c1C(c1ccccc1)C(C#N)C#N (stereo not drawn) 3.16 µM [inhibitor, full curve, poor fit], Cc1ccsc1/C=C1/C(=O)NN(c2ccccc2)C1=O 15.8 µM [inhibitor, partial curve, poor fit], CC1(C)CNC(=O)c2sc(N3CCOCC3)nc2C1 89.1 µM [inhibitor, single point], CCN(C[C@H]1N[C@@](Cc2ccccc2)(C(=O)OC)[C@H]2C(=O)N(C)C(=O)[C@@H]12)C(=O)COC 28.2 µM [inhibitor, partial curve, poor fit], Cc1ccc(C)c2sc(NC(=O)c3ccc(N4C(=O)CCC4=O)cc3)nc12 22.4 µM [inhibitor, partial curve, poor fit], C=C[C@@](C)(O)CC[C@@H]1[C@@]2(C)CCCC(C)(C)[C@@H]2CC[C@@]1(C)O 89.1 µM [inhibitor, single point], Cc1ccc(S(=O)(=O)N(c2nc(N(C)C)nc(N(C)C)n2)n2cnnc2)cc1 89.1 µM [inhibitor, partial curve], COc1ccc(-c2ccc(=O)n(CC(=O)Nc3ccc4c(c3)OCCO4)n2)cc1 70.8 µM [inhibitor, partial curve], CC1Cc2cc(/C(O)=C3/C(=O)C(=O)N(CC4CCCO4)C3c3ccco3)ccc2O1 (stereo not drawn) 12.6 µM [inhibitor, full curve, poor fit], COc1ccc(NC2c3ccccc3C(=O)N2c2ccccn2)cc1Cl (stereo not drawn) 0.316 µM [inhibitor, full curve, poor fit], CCOC(=O)c1sc(NC(=O)CSc2nnc(Cc3ccccc3)o2)c(C#N)c1C 14.1 µM [inhibitor, partial curve, poor fit], c1ccc(CNc2ncnc3c2ncn3Cc2ccccc2)cc1 89.1 µM [inhibitor, single point], CCc1nn2c(=O)cc(COc3ccc(/C=C4\C(=N)N5N=C(C)SC5=NC4=O)cc3)nc2s1 20 µM [inhibitor, partial curve, poor fit], CC1(C)C(=O)Nc2ccccc2N1C(=O)CSc1nnc2ccccn12 56.2 µM [inhibitor, partial curve, poor fit], CN1C(=O)NC2(O)C(=O)c3ccccc3C12O (stereo not drawn) 3.16 µM [inhibitor, single point], CCc1nc2ccccc2c(C(=O)OCc2nnc(-c3ccccc3)o2)c1C 35.5 µM [inhibitor, single point], CCCCC1C(=O)N(c2ccccc2)N(c2ccc(O)cc2)C1=O (stereo not drawn) 17.8 µM [inhibitor, partial curve, poor fit], O=C(c1ccco1)N(Cc1ccc2c(c1)OCO2)Cc1cc2cc3c(cc2[nH]c1=O)OCO3 56.2 µM [inhibitor, partial curve, poor fit], Cc1ccc2c(c1)N(CC(=O)O)C(=O)CO2 112 µM [inhibitor, partial curve, poor fit], Cc1cccc(-c2cc(C(=O)O)c3c(-c4ccc(F)cc4)[nH]nc3n2)c1 79.4 µM [inhibitor, single point], CCCOc1cccc(C2/C(=C(/O)c3ccc(F)cc3)C(=O)C(=O)N2CCN(C)C)c1 (stereo not drawn) 25.1 µM [inhibitor, single point], O=[N+]([O-])c1ccc(OCCN2CCNCC2)cc1 20 µM [inhibitor, single point], COc1ccccc1C1CC(=O)Oc2cc(C)c(Cl)cc21 (stereo not drawn) 0.794 µM [inhibitor, full curve, poor fit], COc1ccccc1N(CC(=O)NCc1ccccc1)C(=O)CCC(=O)Nc1cc(C)ccn1 31.6 µM [inhibitor, single point], CN(C(=O)c1ccc(Cl)cc1)c1ccc(OCC(=O)Nc2cc(C(=O)O)ccc2Cl)cc1 50.1 µM [inhibitor, partial curve], NC(=O)CC(NC(=O)Cc1ccc(Br)cc1)c1ccc(N2CCN(c3ccccc3)CC2)c([N+](=O)[O-])c1 (stereo not drawn) 50.1 µM [inhibitor, single point], CCOc1ccc(CCNC(c2nnc(-c3ccccc3)o2)c2ccccc2Cl)cc1OCC (stereo not drawn) 89.1 µM [inhibitor, single point], COc1ccc(NC(=O)CS(=O)CC(=O)NCc2cccc(C(F)(F)F)c2)cc1 (stereo not drawn) 89.1 µM [inhibitor, single point], COc1ccccc1C(=O)N/C(=C/c1ccco1)C(=O)Nc1ccc(C(=O)O)cc1 15.8 µM [inhibitor, partial curve, poor fit], CC(C)N(C(=O)CSc1nc(Cc2ccccc2)nc2ccccc12)C(C)C 39.8 µM [inhibitor, single point], Cc1nc2c(ccc3nc(NC(=O)c4ccc5c(c4)OCCO5)sc32)s1 11.2 µM [inhibitor, partial curve, poor fit]

activity, negative = inhibition, inactive:
COc1ccc(NC(=O)c2ccc3oc(=O)c(S(=O)(=O)c4ccc(F)cc4)cc3c2)c(OC)c1 18.3%, COc1cc(C2CC(=O)N(CC(=O)Nc3ccccc3F)c3ccccc3S2)cc(OC)c1OC (stereo not drawn) 31.2%, COc1ccc(OCC(=O)OCCN2C(=O)c3ccccc3C2=O)cc1 5.29%, COc1cccc(CNCc2c(C(=O)O)c(C)n(Cc3ccc(F)cc3Cl)c2C)c1OC -0.55%, CSc1ccccc1-n1nnnc1SCC(=O)Nc1ccccc1C 27.3%, Cc1ccc(-c2cn3c(n2)sc2cc(C(=O)NC4CCCCC4)ccc23)cc1 14.4%, CC1CCCCC1NC(=O)CSc1ccsc1[N+](=O)[O-] (stereo not drawn) 6.36%, CC(=O)N(C1=C(O)c2ccccc2C(=O)C1=O)C1CCCCC1 28.9%, C=CCNS(=O)(=O)c1cccc2cc(C(=O)O)c(O)cc12 -1.66%, Cc1cccc(NC(c2nnc(-c3ccccc3)o2)c2ccc(F)cc2Cl)c1C (stereo not drawn) -21.5%, Cc1oc2c(c(C)cc3oc(=O)c(CC(=O)NCCc4ccc(Cl)cc4)c(C)c32)c1C -26%
